Experiment: peptide synthesis

## Boc-Gly-Gly-Gly-Gly-Leu[SEQ ID NO: 1]-Hydrocodone
Coupling step
  step yield: 37%

## Gly-Gly-Gly-Gly-Leu[SEQ ID NO: 1]-Hydrocodone
Late stage modification step
  step yield: 97%
